These are yes or no findings as the source states them, for the method shown. Binding seen in cells or lysates may run through a third protein. Some results given as binding are weak or reduced against the parent protein; the word gives no strength.

By UniProt entry, the sequences of proteins in these tests, tags left out. Where a name states a change or a piece, a line headed by the entry shows the natural chain unless it says otherwise.
UniProt Q00987: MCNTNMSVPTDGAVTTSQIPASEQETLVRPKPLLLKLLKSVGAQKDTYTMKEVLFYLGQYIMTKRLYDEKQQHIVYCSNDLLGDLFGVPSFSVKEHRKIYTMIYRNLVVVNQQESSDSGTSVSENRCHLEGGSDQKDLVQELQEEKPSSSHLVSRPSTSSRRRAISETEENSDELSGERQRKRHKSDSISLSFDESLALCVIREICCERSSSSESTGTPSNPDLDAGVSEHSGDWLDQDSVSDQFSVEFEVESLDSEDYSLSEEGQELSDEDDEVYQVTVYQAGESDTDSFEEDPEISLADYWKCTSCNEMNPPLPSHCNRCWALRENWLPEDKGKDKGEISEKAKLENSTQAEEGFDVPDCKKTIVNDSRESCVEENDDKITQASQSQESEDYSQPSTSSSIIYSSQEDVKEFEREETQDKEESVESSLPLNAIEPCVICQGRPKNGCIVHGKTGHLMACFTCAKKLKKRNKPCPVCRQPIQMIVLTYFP
UniProt Q7Z6Z7: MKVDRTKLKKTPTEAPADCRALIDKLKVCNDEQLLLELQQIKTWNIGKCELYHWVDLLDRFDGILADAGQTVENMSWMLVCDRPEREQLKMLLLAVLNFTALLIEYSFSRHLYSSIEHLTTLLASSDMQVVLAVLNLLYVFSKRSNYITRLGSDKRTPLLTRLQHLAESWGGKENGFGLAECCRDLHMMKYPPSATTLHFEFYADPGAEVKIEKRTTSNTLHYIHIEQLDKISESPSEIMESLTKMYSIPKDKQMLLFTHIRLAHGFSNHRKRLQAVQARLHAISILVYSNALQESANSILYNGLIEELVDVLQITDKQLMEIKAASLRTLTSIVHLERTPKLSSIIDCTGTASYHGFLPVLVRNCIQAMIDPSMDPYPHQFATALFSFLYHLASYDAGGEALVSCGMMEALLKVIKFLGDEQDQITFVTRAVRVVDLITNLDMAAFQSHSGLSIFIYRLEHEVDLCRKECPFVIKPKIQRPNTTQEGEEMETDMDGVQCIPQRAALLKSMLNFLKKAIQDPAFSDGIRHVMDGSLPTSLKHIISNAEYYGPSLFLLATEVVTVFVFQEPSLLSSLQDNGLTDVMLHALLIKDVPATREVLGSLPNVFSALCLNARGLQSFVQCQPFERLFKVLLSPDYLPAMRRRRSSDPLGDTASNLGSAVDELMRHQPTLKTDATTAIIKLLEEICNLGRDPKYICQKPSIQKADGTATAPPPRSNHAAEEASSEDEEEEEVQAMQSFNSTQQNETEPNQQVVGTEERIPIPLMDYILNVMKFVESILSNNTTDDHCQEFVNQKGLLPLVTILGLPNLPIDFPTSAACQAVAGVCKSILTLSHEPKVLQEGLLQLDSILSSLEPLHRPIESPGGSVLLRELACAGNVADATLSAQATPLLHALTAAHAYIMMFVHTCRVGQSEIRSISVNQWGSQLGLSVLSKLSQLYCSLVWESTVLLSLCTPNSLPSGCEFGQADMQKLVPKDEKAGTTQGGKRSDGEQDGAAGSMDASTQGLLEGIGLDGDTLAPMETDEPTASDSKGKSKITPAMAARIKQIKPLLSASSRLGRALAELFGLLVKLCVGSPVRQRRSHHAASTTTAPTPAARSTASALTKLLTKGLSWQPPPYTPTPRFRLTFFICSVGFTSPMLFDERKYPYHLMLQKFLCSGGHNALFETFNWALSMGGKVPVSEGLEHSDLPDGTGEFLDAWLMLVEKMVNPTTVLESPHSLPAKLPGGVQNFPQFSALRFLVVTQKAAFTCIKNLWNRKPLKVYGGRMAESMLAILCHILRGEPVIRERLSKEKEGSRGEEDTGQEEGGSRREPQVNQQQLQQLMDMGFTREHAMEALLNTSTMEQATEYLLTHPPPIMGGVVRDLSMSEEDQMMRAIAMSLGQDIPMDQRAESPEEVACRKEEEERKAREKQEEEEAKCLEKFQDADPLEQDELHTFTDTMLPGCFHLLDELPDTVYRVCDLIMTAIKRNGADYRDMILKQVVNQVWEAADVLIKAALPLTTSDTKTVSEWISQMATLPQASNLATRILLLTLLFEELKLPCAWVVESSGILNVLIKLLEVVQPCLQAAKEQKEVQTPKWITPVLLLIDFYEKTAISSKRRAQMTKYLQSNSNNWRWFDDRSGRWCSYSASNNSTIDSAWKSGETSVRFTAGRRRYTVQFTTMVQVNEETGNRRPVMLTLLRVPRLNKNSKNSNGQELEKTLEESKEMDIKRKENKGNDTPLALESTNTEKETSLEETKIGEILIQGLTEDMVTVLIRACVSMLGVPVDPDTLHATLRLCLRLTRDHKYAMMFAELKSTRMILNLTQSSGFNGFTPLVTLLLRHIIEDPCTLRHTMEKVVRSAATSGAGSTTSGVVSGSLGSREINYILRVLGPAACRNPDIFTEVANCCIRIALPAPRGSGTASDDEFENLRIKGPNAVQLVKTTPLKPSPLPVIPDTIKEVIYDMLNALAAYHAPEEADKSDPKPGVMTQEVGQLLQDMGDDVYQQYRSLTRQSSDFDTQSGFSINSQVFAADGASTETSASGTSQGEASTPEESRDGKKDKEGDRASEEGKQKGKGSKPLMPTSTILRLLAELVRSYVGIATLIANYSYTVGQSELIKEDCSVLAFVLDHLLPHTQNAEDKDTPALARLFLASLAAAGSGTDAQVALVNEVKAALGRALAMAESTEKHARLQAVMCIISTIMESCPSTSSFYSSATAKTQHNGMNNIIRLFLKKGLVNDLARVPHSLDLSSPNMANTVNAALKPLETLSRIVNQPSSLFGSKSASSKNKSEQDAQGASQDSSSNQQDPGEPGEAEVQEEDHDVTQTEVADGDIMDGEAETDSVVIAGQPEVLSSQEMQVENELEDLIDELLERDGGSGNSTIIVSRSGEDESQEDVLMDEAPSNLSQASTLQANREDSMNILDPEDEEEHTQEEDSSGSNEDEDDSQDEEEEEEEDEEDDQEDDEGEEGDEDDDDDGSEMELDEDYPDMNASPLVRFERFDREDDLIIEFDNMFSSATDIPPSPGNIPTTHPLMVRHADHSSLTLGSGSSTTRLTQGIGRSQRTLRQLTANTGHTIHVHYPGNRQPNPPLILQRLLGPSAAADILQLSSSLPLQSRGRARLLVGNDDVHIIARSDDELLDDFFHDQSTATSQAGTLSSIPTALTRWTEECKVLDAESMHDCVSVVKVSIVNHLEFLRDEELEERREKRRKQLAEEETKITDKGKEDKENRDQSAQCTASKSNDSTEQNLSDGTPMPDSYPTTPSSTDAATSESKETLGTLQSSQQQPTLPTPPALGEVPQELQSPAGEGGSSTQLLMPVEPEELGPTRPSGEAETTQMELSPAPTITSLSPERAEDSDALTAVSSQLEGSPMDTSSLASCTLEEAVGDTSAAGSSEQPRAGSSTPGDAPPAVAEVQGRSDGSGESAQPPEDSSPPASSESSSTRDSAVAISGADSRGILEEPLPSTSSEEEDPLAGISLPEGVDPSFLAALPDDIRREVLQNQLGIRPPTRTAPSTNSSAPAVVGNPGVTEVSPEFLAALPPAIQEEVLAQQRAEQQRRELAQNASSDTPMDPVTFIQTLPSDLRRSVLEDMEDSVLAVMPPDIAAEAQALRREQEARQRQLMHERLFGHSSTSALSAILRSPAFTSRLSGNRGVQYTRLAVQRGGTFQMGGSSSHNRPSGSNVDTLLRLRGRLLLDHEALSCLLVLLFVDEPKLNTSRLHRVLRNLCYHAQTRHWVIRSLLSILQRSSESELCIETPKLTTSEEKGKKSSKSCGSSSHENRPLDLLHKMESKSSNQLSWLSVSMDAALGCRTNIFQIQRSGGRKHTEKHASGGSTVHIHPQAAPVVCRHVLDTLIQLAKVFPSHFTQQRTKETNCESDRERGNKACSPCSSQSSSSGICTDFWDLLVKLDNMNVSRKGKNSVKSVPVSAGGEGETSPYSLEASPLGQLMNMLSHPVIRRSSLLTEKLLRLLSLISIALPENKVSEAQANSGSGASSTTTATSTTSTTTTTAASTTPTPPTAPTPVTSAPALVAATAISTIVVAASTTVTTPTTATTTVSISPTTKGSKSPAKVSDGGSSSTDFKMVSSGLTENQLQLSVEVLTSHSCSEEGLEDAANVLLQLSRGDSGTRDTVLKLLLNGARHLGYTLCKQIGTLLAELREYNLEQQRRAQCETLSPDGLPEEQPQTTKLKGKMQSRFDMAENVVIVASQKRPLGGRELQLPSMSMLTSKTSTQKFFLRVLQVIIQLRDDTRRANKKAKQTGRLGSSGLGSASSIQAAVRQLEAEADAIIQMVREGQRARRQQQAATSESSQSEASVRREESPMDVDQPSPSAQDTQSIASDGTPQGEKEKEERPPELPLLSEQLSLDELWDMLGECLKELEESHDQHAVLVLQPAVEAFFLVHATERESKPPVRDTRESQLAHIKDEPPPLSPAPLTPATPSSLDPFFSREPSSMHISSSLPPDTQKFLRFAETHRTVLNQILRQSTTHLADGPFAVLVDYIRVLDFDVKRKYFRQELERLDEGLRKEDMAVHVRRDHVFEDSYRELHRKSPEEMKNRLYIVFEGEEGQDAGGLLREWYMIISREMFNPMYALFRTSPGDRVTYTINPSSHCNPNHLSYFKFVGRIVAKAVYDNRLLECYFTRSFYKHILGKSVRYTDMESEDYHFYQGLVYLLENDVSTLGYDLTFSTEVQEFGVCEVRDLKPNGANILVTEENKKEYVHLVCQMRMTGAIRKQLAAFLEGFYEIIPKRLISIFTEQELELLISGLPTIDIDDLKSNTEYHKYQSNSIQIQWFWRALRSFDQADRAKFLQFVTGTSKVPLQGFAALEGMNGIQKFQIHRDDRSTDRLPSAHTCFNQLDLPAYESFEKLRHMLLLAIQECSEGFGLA

The target of one assay is T1, PP5 (endogenous) (human) (UniProt P53041).
T1 sequence (looked up): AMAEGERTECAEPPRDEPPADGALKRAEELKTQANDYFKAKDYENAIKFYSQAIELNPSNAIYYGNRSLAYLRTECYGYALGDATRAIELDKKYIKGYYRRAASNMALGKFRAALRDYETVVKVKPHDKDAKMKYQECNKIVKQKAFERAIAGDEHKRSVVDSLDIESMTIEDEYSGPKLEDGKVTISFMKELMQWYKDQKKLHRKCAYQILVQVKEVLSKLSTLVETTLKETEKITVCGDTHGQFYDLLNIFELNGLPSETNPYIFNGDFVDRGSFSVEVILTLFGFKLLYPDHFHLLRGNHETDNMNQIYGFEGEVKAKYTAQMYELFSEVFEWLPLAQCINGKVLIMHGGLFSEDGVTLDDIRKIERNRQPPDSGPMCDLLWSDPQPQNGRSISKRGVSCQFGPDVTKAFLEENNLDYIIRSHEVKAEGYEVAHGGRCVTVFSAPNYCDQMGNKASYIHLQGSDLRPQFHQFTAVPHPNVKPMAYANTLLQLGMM
Kind of assay: co-immunoprecipitation with anti-HA from transfected BT474 cells, immunoblot for PP5. In general terms: Immunoblotting shows a protein as a band on a membrane.

Assay [1] deals with MDM2 (endogenous) (human) (UniProt Q00987). Kind of assay: co-immunoprecipitation with anti-HA from transfected BT474 cells, immunoblot for MDM2.

Turning to “HA-Huwe1 wild type (full-length) (from UniProt Q7Z6Z7 1-4374) (enzyme)”, the binding result (in the assay with PP5 (endogenous) (human); in assay [1]) was “binds” each time.
For the substance “HA-Huwe1^1-2474 (from UniProt Q7Z6Z7 1-2474) (enzyme)”, the binding result in assay [1] is recorded as “binds”.
